Results on 29 compounds are retold here after PubChem BioAssay AID2685 (National Center for Advancing Translational Sciences (NCATS), 2010).

Some of the results follow. These are further read-outs of the screen, such as a control signal, another cell line or another target. No call is given for them. Most of these compounds were active or inconclusive in the main read-out, so they are no random draw. Words in brackets tell the shape of the fitted curve; partial curves, single points and poor fits give uncertain potencies.

A short description of this assay: qHTS Assay for Lipid Storage Modulators in Drosophila S3 Cells.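 On cell number change: cells counted by Cell Tracker Red CMTPX staining in the red channel.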 The note with it: BODIPY lipid droplet fluorescence, 18-24 h; for cell number change: measured here: cell count max response, cells fed with added oleic acid. The source says: NIH Molecular Libraries Probe Production Centers Network [MLPCN] NIH Chemical Genomics Center [NCGC] MLPCN Grant: 1 R03 MH085686-01 Assay Submitter (PI): Beller, Mathias; Max-Planck-Institut fur Biophysikalische Chemie NCGC Assay Overview: Storing lipids as a reservoir for energy or the anabolism of elementary metabolites is a common feature of probably all cells and is conserved from bacteria to humans. The universal cellular lipid storage organelle is the so-called lipid storage droplet (LD). Although ubiquitous, LDs share a simple structure composed of a hydrophobic core that harbors the storage lipids, which is shielded by a droplet-specific phospholipid monolayer to which proteins are attached. The current model of LD biogenesis involves an incorporation of the lipid core into the membrane leaflets of the endoplasmic reticulum (ER) followed by a subsequent budding-like maturation of a LD, which ultimately pinches off. Once released, LD volume can increase by localized lipogenesis or fusion of existing droplet. Storage lipids are re-mobilized enzymatically by lipase activity. Lipase regulation in the adipocyte is heavily studied and involves multiple components including catecholamine signaling, the LD-associated proteins Perilipin and comparative gene identification (CGI-58) and at least two lipases named hormone sensitive lipase (HSL) and adipocyte triglyceride lipase (ATGL). LD regulation outside of the adipocyte is poorly understood and only few components are known. However, there is an urgent need to learn more about ectopic fat depots as mislocalized storage of lipids, for example in the liver or muscle, is an eminent health problem associated with insulin resistance or the metabolic syndrome. We developed a laser-scanning cytometer assay to enable 1,536-well screening and combined the results of the small molecules screen with an RNAi database based on lipid storage.
Triacsin C (Sigma-Aldrich T-4540), an inhibitor of long-chain fatty acyl CoA synthetase that blocks synthesis of triglycerides, was used as a positive control for lipid under-storage. A total of 23 nL of compound solution of different concentrations were transferred to the assay plates using a Kalypsys pin tool equipped with a 1,536-pin array containing 10-nL slotted pins (FP1S10, 0.457-mm diameter, 50.8 mm long; V&P Scientific). One microliter of oleic acid (400 uM) was added, and the plate was lidded with stainless steel rubber gasket lined lids containing pinholes. […] Fluorescence was detected by excitation of the fluorophores with a 488-nm laser on an Acumen Explorer (TTP Lab Tech). The total intensity in channel 2 (500-530 nm) reflected lipid droplet accumulation. Cells were detected using channel 3 (575-640 nm) with 5-um width and 100-um depth filters. The ratio of the number of objects in PMT channel 2 over the number of objects in PMT channel 3 was also calculated. Percent activity was computed relative to an internal control (100% inhibited lipid droplet deposition due to the presence of 20 uM Triacsin C), which was added to 32 wells/plate.
In general terms: qHTS replaces the single test concentration by a dilution series.

The mark [1] stands for this setting: measured here: lipid fluorescence (Fed channel) AC50, cells fed with added oleic acid.
Where [2] appears, read: measured here: cell number channel AC50, cells fed with added oleic acid.

As for `Cc1cc(S(=O)(=O)n2[nH]c(=O)c(CCO)c2C)c(Cl)cc1Cl`, the cell number change was determined as 5.33%. In addition, the AC50 under setting [1] was 0.082 µM [rising, full curve, poor fit].

In the case of `Cc1ccc(C(=O)C(C)OC(=O)CN2C(=O)NC3(CCCC3)C2=O)cc1` (configuration not stated), the AC50 under setting [2] is 4.61 µM [rising, single point].

`CC1(C)Cc2cccc(OCC(=O)OCc3nnc(-c4ccccc4)o3)c2O1`: the cell number change turned out to be 8.57%. Besides, the AC50 under setting [2] was 6.51 µM [falling, single point]. In addition, the concentration at half-maximal activity (AC50) under setting [1] was 2.06 µM [rising, partial curve].

For the compound `CNC(=S)N1N=C(c2ccc(OC)cc2)CC1c1ccc(N(C)C)cc1` (configuration not stated), the cell number change amounted to 30.1%. Further, under setting [2], the AC50 is 0.92 µM [rising, full curve, poor fit].

As to `CCCn1cccc(C(=O)Nc2ccc(OC)cc2)c1=O`, the cell number change amounted to 13.9%. Also, the concentration at half-maximal activity (AC50) under setting [1] is 0.651 µM [falling, single point].

On to `CCN1CCN(C2=CC3=CC(=C(C#N)C#N)CCC3CC2)CC1` (configuration not stated), for which the cell number change was -97.6%. Besides, the AC50 under setting [2] was 1.64 µM [falling, full curve]. In addition, the AC50 under setting [1] is 0.411 µM [falling, full curve].

Regarding `O=C(NCc1ccco1)C(C(=O)c1ccc(F)cc1)n1ccccc1=O` (configuration not stated), the cell number change was determined as 33.3%. Under setting [2], the AC50 is 29.1 µM [rising, single point].

With `Cc1onc(-c2c(Cl)cccc2Cl)c1C(=O)N1CCSCC1`, the cell number change was -44.8%. Also, the AC50 under setting [2] was 14.6 µM [falling, single point]. The AC50 under setting [1] was 16.4 µM [falling, partial curve].

As to `CCN(Cc1ccccc1)Cc1c(C)[nH]c2c(C)c(C)ccc2c1=O`, the cell number change amounted to 22.2%.

As to `O=C(CCCC(=O)N(c1ccc2c(c1)OCCO2)C(C(=O)NC1CCCCC1)c1ccc(Cl)cc1)Nc1ccccn1` (configuration not stated), under setting [2], the AC50 was 0.326 µM [rising, single point].

For `CC1CN(C(=O)C2CC(=O)N(c3ccc(Cl)cc3)C2)CC(C)O1` (configuration not stated), the cell number change was 28.2%. Moreover, under setting [2], the AC50 was 0.231 µM [rising, full curve, poor fit].

On to `CCOc1cc(C(=O)OCc2ccc(C(=O)OC)o2)cc(Br)c1OC`, for which the cell number change came out at 3.69%.

Take `COc1c[nH]n(C2CCCCC2)c(=O)c1=O`: the cell number change was -1.12%. Besides, the half-maximal activity concentration (AC50) under setting [1] was 0.291 µM [falling, full curve, poor fit].

Consider `Cc1ccc2c(CN3CCCCC3C)cc(=O)oc2c1C` (configuration not stated), for which the AC50 runs as follows: under setting [2], 2.06 µM [rising, partial curve]; under setting [1], 29.1 µM [falling, single point].

On to `CCOC(=O)C1=C(C)NC2=C(C(=O)C(C(=O)OCC)C(c3cccc(OC)c3)C2)C1c1ccccn1` (configuration not stated), for which the cell number change came to 22.5%. Also, the AC50 under setting [2] was 0.731 µM [falling, full curve]. Moreover, the AC50 under setting [1] was 2.06 µM [falling, partial curve].

For `Cc1ccc(-c2nc(SCC(N)=O)c(C#N)c3c2CCCC3)cc1`, the cell number change was found to be 127%. For the same compound, under setting [2], the AC50 is 7.31 µM [rising, partial curve]. Besides, under setting [1], the concentration at half-maximal activity (AC50) was 7.31 µM [rising, partial curve].

For the compound `COc1cccc(OCC(O)CN2C(C)CCCC2C)c1` (configuration not stated), the cell number change is -0.283%. In addition, under setting [1], the AC50 is 0.058 µM [falling, full curve].

Take `Cc1noc(-c2ccccc2OC(=O)c2ccccc2)n1`: the cell number change amounted to 4.05%. Besides, under setting [1], the concentration at half-maximal activity (AC50) is 0.00651 µM [falling, full curve, poor fit].

As to `O=C1c2ccccc2NC(c2cn[nH]c2-c2ccccc2)N1O` (configuration not stated), the cell number change was -0.244%. Moreover, the concentration at half-maximal activity (AC50) under setting [1] is 10.3 µM [rising, partial curve].

Regarding `O=C(NCC1CCCO1)c1cccc(NC(=O)c2ccco2)c1` (configuration not stated), the cell number change turned out to be 0.809%.

`CC1CN(CCOc2ccc(F)cc2)CC(C)O1` (configuration not stated): the cell number change was 11.7%. For the same compound, the concentration at half-maximal activity (AC50) under setting [1] was 29.1 µM [rising, single point].

Regarding `Cc1ccc(-c2nc(N)s[n+]2-c2ccccc2)cc1`, the cell number change was -83.7%. Besides, the AC50 under setting [2] is 23.1 µM [falling, single point]. Moreover, the half-maximal activity concentration (AC50) under setting [1] is 29.1 µM [falling, single point].

For the compound `COCCn1c(SCC(=O)N2CCOCC2)nnc1-c1ccco1`, the cell number change was -13.2%.

Regarding `Cc1ccc(C)c(NC(=O)c2cc(C)nc3ccccc23)c1`, the cell number change worked out at 11.1%. For the same compound, the AC50 under setting [1] is 3.66 µM [rising, full curve].

Consider `COc1cc(C)c(C(C)C)cc1S(=O)(=O)n1cnc(C)c1`, for which the cell number change was 35.3%. For the same compound, the AC50 under setting [2] is 29.1 µM [rising, single point].

For `Cc1nc2cc(Cl)c(Cl)cc2n1-c1ccccn1`, the cell number change was -20.2%. Further, under setting [1], the half-maximal activity concentration (AC50) is 4.11 µM [falling, partial curve, poor fit].

In the case of `COc1ccc(CNC(=O)Cn2cccc2C(=O)c2ccccc2C)cc1`, the concentration at half-maximal activity (AC50) under setting [1] is 0.58 µM [rising, single point].

With `O=C(CSc1cccc2cccnc12)Nc1cccc(S(=O)(=O)N2CCOCC2)c1`, the cell number change was 35.8%. Besides, the concentration at half-maximal activity (AC50) under setting [2] is 29.1 µM [rising, single point].

For the compound `N#Cc1nc(-c2ccccc2F)oc1NC1CCCCC1`, the cell number change is -3.49%. Besides, under setting [1], the AC50 was 0.00461 µM [rising, full curve, poor fit].

One may read the AC50 as the concentration at which the activity in the assay is half-maximal.
